Results deposited as PubChem BioAssay AID652243 (Drosophila RNAi Screening Center, 2013).

- Test: 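Knock-downs that decrease or increase androgen receptor reporter signal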 (primary screen)
- Cells: Drosophila S2R+ cells
- Reagents: long dsRNA against Drosophila genes
- Duration: 72 h (48 h, then 24 h hormone)
- Treatment: synthetic androgen R1881 at 10 nM for 24 h
- Measurement: 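Firefly light from an androgen-responsive reporter and Renilla control light per well, raw and unnormalised, for each of two replicates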
- Direction: firefly reporter light: higher = more light from androgen-responsive reporter; Renilla control light: higher = more constitutive control signal (cell number, transfection)
- Rule for the call: 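Across duplicate plates, a knock-down whose log firefly/Renilla ratio shifted a set fold down or up from the GFP/LacZ control mean was a hit; the downward cut appears as both 1.5 and 3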
- Calls: active = hit: reporter lowered or raised; inactive = no hit
In all, the deposit lists about 24,000 reagents; shown is an unselected part of those with a known target gene and a result. Over the whole deposit, 246 (1%) are marked active. 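Plates not normalised; calls are printed but the firefly/Renilla ratio behind them is not deposited; fold cut for lowering reported inconsistently.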 Raw values vary from plate to plate and are shown uncorrected. Reagents against one gene are numbered here. Not given: the amount of reagent.

| gene | reagent | firefly reporter light, replicate 1 | firefly reporter light, replicate 2 | Renilla control light, replicate 1 | Renilla control light, replicate 2 | Call |
| --- | --- | --- | --- | --- | --- | --- |
| CG31467 | 1 | 2.71e5 | 2.84e5 | 3.47e6 | 3.04e6 | inactive |
| CG31467 | 2 | 3.08e5 | 5.13e5 | 3.80e5 | 1.12e6 | inactive |
| CG12934 | 1 | 47815 | 40786 | 8.52e5 | 6.50e5 | inactive |
| CG12934 | 2 | 7.14e5 | 1.05e6 | 1.33e6 | 1.39e6 | inactive |
| CG33342 | 1 | 83504 | 1.44e5 | 1.68e5 | 2.10e5 | inactive |
| Ugt305A1 | 1 | 1.14e5 | 74757 | 1.29e6 | 7.98e5 | inactive |
| Ugt305A1 | 2 | 2.17e5 | 2.65e5 | 4.57e5 | 6.16e5 | inactive |
| CG32687 | 1 | 4.08e5 | 3.08e5 | 4.82e6 | 3.26e6 | inactive |
| CG32687 | 2 | 3.40e5 | 3.18e5 | 2.05e6 | 2.73e6 | inactive |
| CG32687 | 3 | – | – | – | – | inactive |
| CG12075 | 1 | 47288 | 49888 | 5.59e5 | 4.70e5 | inactive |
| CG12075 | 2 | 8.45e5 | 1.03e6 | 1.16e6 | 1.14e6 | inactive |
| CG5973 | 1 | 1.30e6 | 1.24e6 | 2.51e6 | 2.57e6 | inactive |
| beat-Ic | 1 | 1.28e5 | 2.11e5 | 2.70e5 | 4.55e5 | inactive |
| beat-Ic | 2 | 66085 | 55328 | 1.09e6 | 1.24e6 | inactive |
| beat-Ic | 3 | 1.13e6 | 9.39e5 | 1.14e6 | 1.14e6 | inactive |
| beat-Ic | 4 | 4.82e5 | 8.82e5 | 1.43e6 | 2.52e6 | inactive |
| CG2889 | 1 | 6.01e5 | 6.76e5 | 3.23e6 | 3.14e6 | inactive |
| CG5815 | 1 | 1.89e5 | 1.73e5 | 3.21e6 | 3.14e6 | inactive |
| CG5815 | 2 | 1.21e6 | 8.69e5 | 2.92e6 | 1.09e6 | inactive |
| Acat1 | 1 | 72071 | 47003 | 4.74e5 | 3.23e5 | inactive |
| Acat1 | 2 | 4.01e5 | 9.18e5 | 8.20e5 | 1.46e6 | inactive |
| Rm62 | 1 | 27434 | 30042 | 2.67e5 | 2.58e5 | inactive |
| Rm62 | 2 | 3.54e5 | 2.66e5 | 9.33e5 | 3.09e5 | inactive |

Quoted from the entries so far (2 entries):
| gene | reagent | firefly reporter light, replicate 1 | firefly reporter light, replicate 2 | Renilla control light, replicate 1 | Renilla control light, replicate 2 | Call |
| --- | --- | --- | --- | --- | --- | --- |
| beat-Ic | 3 | 1.13e6 | 9.39e5 | 1.14e6 | 1.14e6 | inactive |
| beat-Ic | 4 | 4.82e5 | 8.82e5 | 1.43e6 | 2.52e6 | inactive |
